Assay results as given in the supplement of paper PMC5949888.
Most values lie at the floor of the assay. Slopes are relative: functional sequences can read slightly below zero.

System: Saccharomyces cerevisiae PS128 hsf1 delta, HSF1(1-493) fusion
Test: growth estimate (transactivation domain function in HSF1 fusion, heat-shock survival) (a.u. (slope of normalised read count over time)); higher = stronger growth at 37°C, i.e. more transactivation activity
Conditions: library: random library

| Substance | growth estimate |
| --- | --- |
| TLRTSYAG | < -0.25 |
| INQFSGGLGW | < -0.25 |
| WIWLNN | < -0.25 |
| SHQRLANDQLSVE | -0.246 |
| FRPVK | < -0.25 |
| CELSVDRRSGPRGV | < -0.25 |
| HLLLSSNFVGILCQPLRSHR | < -0.25 |
| LFKITESFVYGLCIPCYLTQ | < -0.25 |
| YHTIPGDPSKFQLTP | < -0.25 |
| STVTDLNRFGILNTRLVLAQ | < -0.25 |
| SFPPPWVESGRIEGLRGCQG | < -0.25 |
| GQSGLLSIQYTAL | < -0.25 |
| DASWTRASRLVAMCRIPSS | < -0.25 |
| CVGWIT | < -0.25 |
| TCTINFP | < -0.25 |
| PSPQRGGLSRSRGPG | < -0.25 |
| VLLDSHPWYFAGDNNSGTYG | < -0.25 |
| GSKQTELGRA | -0.203 |
| IVGLLIVYHVPIARVKHTRD | < -0.25 |
| VIDDFLQSSGHSKAACV | < -0.25 |
| GLNALGLCSTFRRKYKPLDS | < -0.25 |
| RIGDPIFHPNRGQVSGKPRP | < -0.25 |
| TRCGLTAKNGRKASGFLPEA | < -0.25 |
| HNALLITRPVRFL | < -0.25 |
| KLGFSSTSTNSGIPLGVRDS | < -0.25 |

In a second layout: entries from further up.
CELSVDRRSGPRGV
  growth estimate: < -0.25
PSPQRGGLSRSRGPG
  growth estimate: < -0.25

The list continues:

| Substance | growth estimate |
| --- | --- |
| CHDQSRSDGGIGFKMRRRIA | < -0.25 |
| SWGGKWMLIVLRWSGNGGVR | < -0.25 |
| RGNQ | < -0.25 |
| AISVVP | < -0.25 |
| GRVCKGIRRRQKQVRIGLVR | < -0.25 |
| PDAFSQEVFA | < -0.25 |
| MSVWQAFEVVYSIFCRKMHK | < -0.25 |
| ERYQSWVSPIRPAQAQL | < -0.25 |
| QDDRAKSFTV | < -0.25 |
| LAKGCMSHSWNGPSGMVRFA | < -0.25 |
| QHRGSGPMRTLRA | < -0.25 |
| CKRSRVDLGHQPHDWMRCGI | < -0.25 |
| YTVFQTVSQNDIALAYPTYL | 0.783 |
| IRRSIPDRPG | < -0.25 |
| AYGEGFYGLLAVTRGF | < -0.25 |
| AIVLAERTPVIADTNFVSPT | < -0.25 |
| CREGNLLTAPEVLTECGPRV | < -0.25 |
| VKWSGPLP | < -0.25 |
| SPAYTG | < -0.25 |
| DGTLVAVTPIN | < -0.25 |
| RVKAAYRYGLV | < -0.25 |
| GSEEDRIQQIVLR | < -0.25 |
| QILEGKFHPTGQRVRNLVGR | < -0.25 |
| YVVLSGSRTSECPGGSPHMS | < -0.25 |
| RCASPIDSEVSLEGLSEF | < -0.25 |

| Substance | growth estimate |
| --- | --- |
| TCSALTHITEFGKC | < -0.25 |
| KEHGGRSARRVCLIVKQPH | < -0.25 |
| TTPGIVAIPLPQFYGARCHR | < -0.25 |
| QRERPSVDRGRT | < -0.25 |
| WSRSLDSSKGFPACFVYSTS | < -0.25 |
| MMAGNRLVLSI | < -0.25 |
| NVPSRAADNYRTEGNIPSTL | < -0.25 |
| MSVKGPIYGI | < -0.25 |
| LLKTFVTE | < -0.25 |
| VSKPTLLVGYCCLTNYA | < -0.25 |
| STQTSPDSVILAYAL | < -0.25 |
| IISPCCYRVQL | < -0.25 |
| DGTLVVG | < -0.25 |
| YGSLLSESRTLYASGTTCAP | < -0.25 |
| WIMDQDT | < -0.25 |
| LGGV | < -0.25 |
| LINESEVSGRA | < -0.25 |
| YHPAGPYIRTRLTYRSCQFI | < -0.25 |
| YSQVCARLEIYRTSENLLER | < -0.25 |
| VRTGPPGSMLSKIERGVSLG | < -0.25 |
| NDVRGLTSPRSCV | < -0.25 |
| ARWSWAPTAMCS | < -0.25 |
| ILQ | < -0.25 |
| TKIEGQLYIDGVPGSPRGLS | < -0.25 |
| LGSSDGRRVGPSPMGGPSSL | < -0.25 |

2 entries picked at random from the list so far, as already listed:

| Substance | growth estimate |
| --- | --- |
| LLKTFVTE | < -0.25 |
| LINESEVSGRA | < -0.25 |

(further entries)

| Substance | growth estimate |
| --- | --- |
| SSLER | < -0.25 |
| CGPEI | < -0.25 |
| FRMQLRCVTIDIGKYYTAPS | < -0.25 |
| NLWVRT | -0.243 |
| ERNYRRNVFVVSSNCTILLR | < -0.25 |
| REPV | < -0.25 |
| DGIFVGVKDRHYGN | < -0.25 |
| AVP | < -0.25 |
| RPSSWVNFSRRTGHGLEHSM | < -0.25 |
| YKPQEGSRIGGWWLIGYRDA | < -0.25 |
| WELPSPVVTNVGTHPK | < -0.25 |
| LRVSGSE | < -0.25 |
| LRMREFAIIRLASILLGYVS | < -0.25 |
| PLGNTTKTGEGIRIWSALSI | < -0.25 |
| RTRLREL | < -0.25 |
| THGRWVLGFGPDKSVIQ | < -0.25 |
| VWAPIYVYARIFLMVDHADG | < -0.25 |
| RPSALREEVLDCSRQTSFL | < -0.25 |
| CDKVQCGFSASEALVESVSN | < -0.25 |
| QSLELH | < -0.25 |
| RHMLEPHDSPTPTARGPQSR | < -0.25 |
| LRLLDGHRPWSD | < -0.25 |
| ECRIR | < -0.25 |
| QHMD | < -0.25 |
| KSRLRKYWSYAIQYIIIGVS | < -0.25 |
